From paper PMC3899939, “IpsA, a novel LacI-type regulator, is required for inositol-derived lipid formation in Corynebacteria and Mycobacteria” (BMC Biology, 2013)
For part of these data: No signal at the amounts used counts as a negative. For part of these data: At least one verdict rests on a figure or table, not on a statement of the authors. For part of these data: Protein sequences can lack the tags named with them. For part of these data: Weaker means in comparison with the reference protein, sequence or condition of that experiment. For part of these data: Construct, isoform or probe ends are uncertain for at least one entry.

Protein sequences, listed by entry. Tags and fused reporters are not part of them. Lines headed by an entry give the natural chain unless they say otherwise; changes in a name come on top.
UniProt Q8NQ97: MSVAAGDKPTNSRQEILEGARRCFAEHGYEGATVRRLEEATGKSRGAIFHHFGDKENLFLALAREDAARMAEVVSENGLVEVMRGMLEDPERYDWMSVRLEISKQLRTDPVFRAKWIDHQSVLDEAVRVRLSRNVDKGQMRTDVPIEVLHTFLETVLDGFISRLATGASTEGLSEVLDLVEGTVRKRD

molecular target: AcnR (UniProt Q8NQ97); test: EMSA; conditions: up to 50 mM myo-inositol, no effect; EMSA: 50 mM Tris-HCl pH 7.5, 40 mM KCl, 5 mM MgCl2, room temperature, 10 uL, DNA 0.028-1 uM, 10-15% native PAGE; recombinant protein; probe letters rebuilt from the primers and the genome

Row | Sequence | binding result
1 | ACATCACGCACGTACCCATTTCGAGCAAATCCGACAAAACCGCTGCCTAGGGACATTAGACACGCTAGCAGGCCAAAATTCCATGACGTTATTGACGCGCCAAGAACCCCAACTTTCCCGCCAGAACGCTTGTACTGTTAGGATAATGAAGACGTAGGGTCCTTTTCCACAGTTCTGTGGAATGAGAATCCGATGTTTTTCTCACGCCGGCTCAGCCGAAGCAGACGCCGTCGCGAAATCTCACCCTAAAAAAGTTAGAATTGGAGCTCACTGTGACTGAAAGCAAGAACTCCTTCAATGCTAAGAGCACCCTTGAAGTTGGCGACAAGTCCTATGACTA (double strand) [acn promoter] | binds

system: T1, IpsA-His (Corynebacterium glutamicum ATCC 13032); test: EMSA; conditions: EMSA: 50 mM Tris-HCl pH 7.5, 40 mM KCl, 5 mM MgCl2, room temperature, 10 uL, DNA 0.028-1 uM, 10-15% native PAGE; recombinant protein; residues 1-360; protein details: N-terminal His10-tag, TEV site; probe letters rebuilt from the primers and the genome
T1 sequence (looked up): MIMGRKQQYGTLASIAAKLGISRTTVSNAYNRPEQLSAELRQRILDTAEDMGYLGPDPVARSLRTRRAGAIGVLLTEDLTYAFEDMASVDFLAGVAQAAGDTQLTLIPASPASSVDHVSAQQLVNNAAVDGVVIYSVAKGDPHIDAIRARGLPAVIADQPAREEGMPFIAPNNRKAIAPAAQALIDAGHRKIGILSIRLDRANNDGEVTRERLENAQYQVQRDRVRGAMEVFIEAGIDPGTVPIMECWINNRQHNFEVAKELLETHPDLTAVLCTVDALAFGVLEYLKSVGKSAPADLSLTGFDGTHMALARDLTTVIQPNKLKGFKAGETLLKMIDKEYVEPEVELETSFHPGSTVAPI

Row | Sequence | binding result
2 | GGAAATCTCCCGAACATCAGAAGTGGCAATCACCTGGTCATTCGATGATGAACGCAGAAAATAAAACGAGGCAGCCGCAATGATCAAAATCAGGACCACGGCCACAATGATTAATTTCTTCGGGGCCAAGGAAAGCGAAGGTGGTAGTGCCACAGTGAGATGGCCCCGAGGATCAGGTAACCCCGGGGCACTCCTTTCATAAGTTCTTACAACAAGTCTGTATCCAAAATGCCAGGGTACGGACATACCATTCACAACACATCAGGGAATCCACCTACTTTGTTTTCCCCTAGAAATCCCCCATTTCATCACTCCCGAATGGGGGTAATGCTTGATCGATCAATTGAGTTGCTTGATCGATCAGGTCTGATTTCTGCTGGGAATCCCCACATTTTGGAACGTAGCGTCGATAAGCGTGCGGCGAAGCTTTTTCGGTCGCGGCCGTTATCTTTTTAAGAGGAGAAATTTTAGATGAGCACGTCCACCATCAGGGTTGCCATT (double strand) [ino1 (cg3323) promoter fragment] | binds
3 | CCAAGAGGATACGTGCGATGAGGAATGCAATTTCCCTGGTAGTTGACATGGTCACTAAAGCTAGAATGAATTAGTTTCCGTGTCAACTATTGGGGTTTCGTCGGAGCTTTCTGGCAAATGTAAAGACCAGCTATTAACGGTCTATTTCCCGAGGTACAGCCCATTTATTCGCCTCAGAAACTGGATCTGGAAGCAGCTCAGCCGGGAAAGTTTGATAAGAAACCGGGCGCATAAATCTCTCGATTGCCAGGGTTCCAACACTTGTCGACTGCGCATTTGAGGTCGCCGGATAAGGGCCTCCATGGATAACCGTGTGCCCAACTTCCACACCCGTTGGCCAGCCGCCGTAAAGAACACGGCCCGCGAGATCCTCCAAGAGGGGGATAAGTTTCGAGACTTCCTGGAAATCATCCTGGGATGCGTGGATCGTGGCTGTTAATTGTCCCTCGAGTGAATTGGCTACTTGGTGGAGTTGATCCGGGGAATCATAACGCACCACCAGC (double strand) [cg0534 promoter fragment] | binds more weakly
4 | CGTTATTGCTGGCGAAGGCGATGTGGACGCGGTTGTTGCTGCTCGTGGACTGGAAGTTGTTCGCGATGACGGCGCAATTGAAAAGGCTGTCGATGATGCCTTGGCTGCAAACCCAGACATCGTGGAGAAGTACCGCGCTGGCAACACCAAGGTCACCGGCGCCATCGTTGGTGCTGTCATGAAGGCGACCCGCGGTAAGGCTGACCCAGCTCAGGTGAACCAGCTGATCGCAAAGAAGTTGGCTTAAGCTTTTTGCCGTTGAGCTGCTAAAAGTCTCGCATTAAAGGACTGCTTCCCTTCGGGGGAGCATTTCTTTTTAACTAATTACTTGACACGTCAAGTAATTAGGGTCTAGTGTTGTGTTCATGATCAAAGAACTGCTCAACAAGCTCTTCGGAAACAAGAAGGCTTCCCCGGCAATGACACAATCTGAAACCATTTCACACAAGGAGAACAACACAATGACCACTTACACCATCTTCGGCCGCGGCAACATGGGCACCGCAATC (double strand) [cg1421 promoter fragment] | binds more weakly
5 | GATTAACAGCGCAGCACCAATGAGCGCTGCGGCGAGTCTTGGTAGCTTCATTTACTCAAGTCAACGCAGGTCAGAGGCACAAGTCAAACTTTATTAACGCTTCTTTATTGATTCAGTGGCTTTGCGCTGTGGCTTTATGATTCCTTTTTCCAAGGCGATAATCTGATCTGCTTGATGTGCTTGATCAAGATCGTGAGTCGCAAGAATAATTGTGGTTCCTTGGTTGCGTTGTTGGTTAATGACATCTTCGATAAGACTTGCCGCGTGGGAGTCCACGGCGGCGAGGGGTTCGTCGAGAAGCAATAAGGGCGCCTGTTGCGCTAAACCTTGCGCTATGAGGGCGCGTTGGCGCTGCCCGCCTGATACTTCGCCGAGGGGGCGGTCGGCGAGGCCGGAGATTTCGAGCCGGTCGAGGCAGCTGTCCACGATGTTGCAATCTGC (double strand) [cg0044 promoter fragment] | binds
6 | ATAAGCATCAGAGCCATGCTCGTTACTTTTAATGACTTGCTCATTAGTTTCGTCCATGGACCCTGTAGCCTGCGACGTTAAATTAGCCAGATTTGCTGCCACCTGCGCTGCTGCGGCGTTCTCGTTTGGTGTACCGGAATTCTTCGGCGAAATGCTCATTACATACTCCTTAGCCTCGTAACTGTATTACCTCAAGTGTATCCGGTGGACACGACGCAGTAGTAAAAAATTTAGACCACCCTTGCGAATAAAAACTAATAAATACTGTTCACTATATTTTCGATAATTTATTAAAACTATTCACCCAAAAGTTTTTGTATCAAAATACACATATTTTAATGACTTTAGCTATACTTCTATCTTGTGACTTAAATGAAAGTCACAAACTTTGTTGGGGTTTCTTTAAAGTAAAATACAGAAGTTTCTCTGGCAAAAAACCTCACTACTTTCTACAGAAAGGCGTCTTCCTCATGAAGGCTTCTCAGACCCTCACCCGCAAC (double strand) [cg1918 promoter fragment] | binds more weakly
7 | GGCCAAGGTGGTTAAGTCTTGTTCGGGCAAAGCATCCTCCTTTAAAAAGTGTCGTGACTCACTTTCTACTCTATAAAGTGTTTCAAGTCATTGAGGGTGCCCCCGTTTGTAATTCTTGCAAAGTGGGTATTGTGCACTTTTTGCGAGGATCTATCGAATGAATTGGCAAAACATAACTTTGGGAAAGTACCCCCTATGACGGAAAACTGGATGGATCCTGTGGTTGAACCACAGTCAACGGGAGAGGGGAAATCGGACACTATATGGTTGGAGATCGTGACAACTGACCAAAACAAAAGAAGTCTCAGTGAGCTTGCGGCCAGAATCGTTAGTGAAATCTGTGCACCGTGGGTACTCAACATCGGATTTTTCCTCATCCTGGGCGGCGTAACAGGCGCCTGGACGCTAGGAATTGTGGCGGCAATCGGAACCGGAATCGTTCCGATGATCTTAATTTTGGGCTTGATGAAGCTCGGCAGGGTAGGAAACCACCATGTGACGA (double strand) [cg3195 promoter fragment] | binds more weakly
8 | GCTCTAACAACCGCCAAAAGAAGAACTAAAACAAACGATTCTCCTGGGAAAATTATCACCGCTCAGCAAGTCACATTTAGACGTCGACGATAGGAACCTCAATATGTTTGATTCAGCAGTTTTTAATGTCGCCTCTTGGATTGAGAAAGATGCCACTAATTGGATTCAAGACCACTCACGGGTGTCTGAGATTCGCAAGCAACGGCCGAGTTAGAACCACTACGTAGGCGTACCCCACCATCACCGCGTCGAAAAGCGCCCTCTCTTAACCCCCGCAAGGGGGTAACTTTTACGCGCACGCGTGCAACGCGCTAGTTTTGAAGGCAGTCCCCACGGGCGCCCGAGCACGGGCTGAGATCGCGCTGATTGCTGCGCGAGCACCGTTTGAACCTGTCCGGTTAGCACCGGCGAAGGAAGAGAGGAATGGTGCAATGACGCCTACCCAAAATGAGATCCACCCG (double strand) [cg1476 (thiC) promoter fragment] | binds more weakly

molecular target: T2, IpsA-Strep (Corynebacterium glutamicum ATCC 13032) (UniProt Q8NMF0); test: EMSA; conditions: EMSA: 50 mM Tris-HCl pH 7.5, 40 mM KCl, 5 mM MgCl2, room temperature, 10 uL, DNA 0.028-1 uM, 10-15% native PAGE; recombinant protein; residues 1-358; protein details: C-terminal STREP-tag
T2 sequence (looked up): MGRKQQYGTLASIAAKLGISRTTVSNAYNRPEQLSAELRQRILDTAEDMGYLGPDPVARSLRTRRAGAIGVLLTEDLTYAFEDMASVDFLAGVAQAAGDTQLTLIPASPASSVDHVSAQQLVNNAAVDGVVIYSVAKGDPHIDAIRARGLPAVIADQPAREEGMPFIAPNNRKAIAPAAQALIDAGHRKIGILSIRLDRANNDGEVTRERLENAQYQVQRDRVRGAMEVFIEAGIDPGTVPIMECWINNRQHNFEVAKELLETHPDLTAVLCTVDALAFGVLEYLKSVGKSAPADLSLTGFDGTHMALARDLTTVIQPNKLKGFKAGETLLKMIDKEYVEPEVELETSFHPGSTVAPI

Row | Sequence | binding result
9 | TTGAGTGTATTGATCGATCAGGTCTGATTT (double strand) [cg3323 M1] | binds more weakly
10 | AATGGGGGTAATGCTTGATCGATCAATTGA (double strand) [cg3323-A] | binds
11 | TTGAGTTGCGGTATCGATCAGGTCTGATTT (double strand) [cg3323 M2] | binds more weakly
12 | AGGTCTGATTTCTGCTGGGAATCCCCACAT (double strand) [cg3323-D] | no binding
13 | TTGAGTTGCTTGATCGATCAGTGATGATTT (double strand) [cg3323 M6] | binds more weakly
14 | GCTCACTTCTTGATTGATGCGGTGGCTTTT (double strand) [cg3210 30-mer] | binds
15 | GTTGCTTGATCGATCAGGTCTGATTTCTGC (double strand) [cg3323-C] | binds
